Results taken from PubChem BioAssay AID2763 (National Center for Advancing Translational Sciences (NCATS), 2010).
This list was built around the results that the source calls inconclusive (neither active nor inactive); the mix of calls is not that of the screen. Potencies beside an inconclusive call are fits to weak or partial responses and may not hold up. Activity calls are given as the source filed them. Calls follow the shape of the dose curve; as a rule, active = well fitted inhibition curve with a large enough effect; inconclusive = small, poorly fitted or top-dose-only effect, or effect the other way; inactive = no such curve, though single readings can be large or run the other way.

Experiment: Concentration response confirmation VP16 counterscreen for inhibitors of ROR gamma transcriptional activity; also: nearly all actives have a fitted effect of over 70% in size
Outline: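 Luciferase counterscreen: UAS-driven Photinus reporter in S2 cells expressing copper-inducible Gal4-VP16 fusion, 600 cells/well. Induced with copper sulfate (700 uM final) 1 hr after compound, incubated 20 hr at ambient temperature before luminescence detection.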
Potency is read from the fitted curve at half-maximal effect.

Structure (SMILES)	Potency
CCOc1ccc(-c2cc(CCCC(=O)NCc3cccnc3)no2)cc1	inconclusive: 5.6 µM [inhibitor, partial curve]
COCC1CCCCN1C(=O)c1cc(COc2ccc3ncccc3c2)on1 (stereo not given)	active: 7.05 µM
O=C(CC(SCc1ccco1)c1ccc(O)cc1)c1cccs1 (stereo not given)	inconclusive: 35.3 µM [inhibitor, single point]
Clc1ccccc1/C=N/NC1=Nc2cccc3cccc1c23	inconclusive: 3.53 µM [inhibitor, full curve]
Cc1ccc(-c2cc(C(=O)N3CCc4ccccc4C3)[nH]n2)cc1C	inconclusive: 28.1 µM [inhibitor, single point]
COc1cccc(-c2cc(C(=O)N3CCc4ccccc4C3)[nH]n2)c1	inactive
O=S(=O)(NCc1ccccn1)C(F)(F)F	active: 25 µM
CCn1cc(C(=O)O)c(=O)c2cnc(N3CCN(C(=S)NC(=O)c4ccccc4)CC3)nc21	inactive
COc1ccc2nc(NNC(=O)COc3ccccc3)sc2c1	inconclusive: 22.3 µM [inhibitor, partial curve, poor fit]
Cc1cc(C)n(-c2nnc3c4ccccc4n(C)c3n2)n1	inconclusive: 35.3 µM [inhibitor, single point]
CCOC(=O)c1sc(NC(=O)c2ccc(S(=O)(=O)N(C)C)cc2)nc1C	inconclusive: 0.0628 µM [inhibitor, full curve]
Cc1ccc(-c2cn(-c3ccccc3)c3[n+]2CCCS3)cc1	inconclusive: 35.3 µM [inhibitor, single point]
CCOC(=O)[C@@H]1[C@H]2COc3ccc(Br)cc3[C@@H]2N2C(=O)N(c3ccccc3)C(=O)[C@@]12C	inactive
O=C(Nc1ccccc1)Nc1sccc1-c1nc2ccccc2s1	inconclusive: 2.5 µM [activator, full curve, poor fit]
CCC(C)NC(=O)CSc1nnc(-c2cc(-c3ccc(C)cc3)nc3ccccc23)n1N (stereo not given)	inactive
COc1cccc(CNS(=O)(=O)c2ccc3c(c2)CCN3C(=O)C2CC2)c1	inactive
CCN1CCN(CCC(=O)Nc2ccccc2)CC1	inactive
COc1cc(CNS(=O)(=O)c2ccc3c(c2)CC(C)N3C(=O)C2CCC2)cc(OC)c1OC (stereo not given)	active: 9.96 µM
Cc1nnc(SCC(=O)Nc2ccc(S(=O)(=O)Nc3ccc(Cl)nn3)cc2)s1	inactive
Cc1cc(NC(=O)CN2CCOCC2)n(-c2nc3ccccc3s2)n1	active: 12.5 µM
CCOc1cccc(-c2cc(-c3n[nH]c(=S)n3CC)c3ccccc3n2)c1	inactive
Cc1ccc(-c2cc(-c3nnc(SCC(=O)NCC(C)C)n3N)c3ccccc3n2)cc1	inconclusive: 28.1 µM [activator, partial curve, poor fit]
Cc1cc(C)n(-c2nc(SCC(=O)O)c3c4c(sc3n2)CCCC4)n1	inconclusive: 31.5 µM [inhibitor, single point]

Structure (SMILES)	Potency
Cc1nc(-c2ccc(O)c(O)c2)cs1	inconclusive: 35.3 µM [inhibitor, single point]
C(=C/c1nccc2c1[nH]c1ccccc12)/c1ccc2c(c1)OCO2	inconclusive: 35.3 µM [inhibitor, single point]
CC(C)n1nc(C(=O)Nc2nc3ccccc3[nH]2)c2ccccc2c1=O	inconclusive: 31.5 µM [inhibitor, single point]
CCN(CC(=O)Nc1ccc(C(=O)Nc2ccc(OC)cc2)cc1)Cc1nc2ccccc2c(=O)[nH]1	inconclusive: 35.3 µM [inhibitor, single point]
CCc1ccc(-c2nc(CSCC(=O)NC3CC3)c(C)o2)cc1	inconclusive: 14.1 µM [inhibitor, partial curve]
COc1nc(N/N=C/c2cc3c(cc2Br)OCO3)nc(N2CCOCC2)n1	inactive
COc1cc(C)nc(-n2nc(C)cc2OC)n1	inconclusive: 35.3 µM [inhibitor, single point]
Cn1nccc1C(=O)NC1CCCc2c1cnn2-c1ccc(F)cc1F (stereo not given)	active: 1.58 µM
O=[N+]([O-])c1ccccc1/C=C/C=N/n1c(-c2ccccc2)n[nH]c1=S	inactive
CCOC(=O)c1sc(NC(=O)c2cc3c(s2)CCC(C)C3)nc1C (stereo not given)	inconclusive: 14.1 µM [inhibitor, partial curve, poor fit]
CCn1cc(C(=O)O)c(=O)c2cc(F)c(N3CCN(C(=S)NC(=O)c4ccccc4C)CC3)cc21	inactive
CCOC(=O)C1CCN(CC(=O)Nc2cc(C)nn2-c2nc3ccccc3s2)CC1	inconclusive: 12.5 µM [inhibitor, partial curve, poor fit]
Cn1nnnc1NCc1ccccc1F	inactive
O=C(c1cc(-c2ccc(Cl)cc2)n[nH]1)N1CCc2ccccc2C1	inactive
CCN(CC)c1ncnc2sc3c(c12)CCC3	inconclusive: 3.53 µM [activator, partial curve, poor fit]
CCOc1ccccc1OCCCC(=O)Nc1nc2ccccc2[nH]1	inconclusive: 35.3 µM [inhibitor, single point]
CCc1cc2c(cc3c(=O)n(CC(=O)NCCCN4CCCCCC4)nc(CC)n32)s1	inconclusive: 17.7 µM [inhibitor, partial curve, poor fit]
COc1cccc2cc(-c3n[nH]c(=S)n3C)oc12	inconclusive: 22.3 µM [inhibitor, single point]
COc1ccc(C2=NN(C(C#N)c3ccc(OC)cc3)C(c3ccccc3)C2)cc1 (stereo not given)	inconclusive: 12.5 µM [activator, partial curve, poor fit]
O=C(CCCN1C(=O)/C(=C/c2ccccc2Cl)SC1=S)Nc1cccnc1	active: 14.1 µM
Cc1ccc(NC(=O)CCN2CCN(C)CC2)cc1	inactive
Clc1ccc(CSc2nnc(Cn3cnc4ccccc43)o2)cc1	inconclusive: 31.5 µM [inhibitor, single point]

Some of the entries so far, comma-delimited.
Structure (SMILES),Potency
CCN(CC(=O)Nc1ccc(C(=O)Nc2ccc(OC)cc2)cc1)Cc1nc2ccccc2c(=O)[nH]1,"inconclusive: 35.3 µM [inhibitor, single point]"
Cn1nnnc1NCc1ccccc1F,inactive
